Reference: PubChem BioAssay AID540256 (National Center for Advancing Translational Sciences (NCATS), 2011)
In all, about 300,000 compounds went through this assay and about 3,700 (1.2%) were called active. A call without a number means that no potency is given here. The shares of active, inactive and inconclusive entries below differ from those in the screen. The call rests on the fitted dose curve; tested in HEK293 cells. Potencies beside an inconclusive call are fits to weak or partial responses and may not hold up.

assay: qHTS for Inhibitors of binding or entry into cells for Lassa Virus; conditions: Lassa virus pseudotype entry inhibition, cell reporter; series mostly up to 37.9 µM; further: nearly all actives have a fitted effect of over 50% in size
Potency means the concentration at half of the fitted maximal effect.

Row | Structure (SMILES) | Potency
1 | O=C(Nc1nc(N2C(=O)c3ccccc3C2=O)n(-c2ccccc2)n1)c1ccccc1 | inactive
2 | CCC12CN3CC(CC)(CN(C1)C3c1c(C)[nH]c(=O)[nH]c1=O)C2=O (stereo unspecified) | inactive
3 | Cc1ccc(-n2[nH]c(=O)c(-c3ccccn3)c2C)cc1 | inconclusive: 4.47 µM [inhibitor, full curve, poor fit]
4 | O=C(Nc1cccc(C(=O)OCc2cc(=O)n3nc(C4CC4)sc3n2)c1)c1ccc(F)cc1 | inactive
5 | C=C1CCC2C(C)(C)[C@H](O)CC[C@@]2(C)[C@@H]1COc1cc(=O)oc2ccccc12 (stereo partly specified) | inconclusive: 29.1 µM [inhibitor, single point]
6 | O=[N+]([O-])c1cccc(Nc2nc(Cl)nc(Cl)n2)c1 | inactive
7 | CC1=NN(C(=O)c2ccccc2)C(O)(c2ccc(Br)cc2)C1 (stereo unspecified) | inactive
8 | CCn1cc(C(=O)Nc2ccc(C)c([N+](=O)[O-])c2)cn1 | inactive
9 | CC(C)[C@@H]1NC(=O)c2cc([N+](=O)[O-])cc(I)c2OCC[C@@H](C(N)=O)NC(=O)[C@H](CCC(=O)O)NC1=O | inactive
10 | CCOC(=O)Nc1ccc2c(c1)N(C(=O)CCN1CCOCC1)c1ccccc1S2 | inconclusive: 17.8 µM [inhibitor, partial curve, poor fit]
11 | O=C(/C(C=Nc1cc2c(oc1=O)CCCC2=O)=C(\O)c1ccccc1)c1ccccc1 | inactive
12 | COc1ccc(N=C2NC(=O)/C(=C\c3ccco3)S2)cc1 | inconclusive: 11.2 µM [inhibitor, partial curve, poor fit]
13 | COc1cccc(CNC(=O)c2csc3c2CCCC3)c1 | inconclusive: 10 µM [inhibitor, partial curve, poor fit]
14 | Cc1ccc(C)c(-n2c(SCC(=O)Nc3nonc3C)nnc2-c2ccoc2C)c1 | inconclusive: 35.5 µM [inhibitor, single point]
15 | COc1ccccc1OCCC(=O)OCC(=O)c1c(N)n(C)c(=O)n(C)c1=O | inactive
16 | CCCNS(=O)(=O)c1ccc(OCC(=O)N2CCN(Cc3ccccc3)CC2)cc1 | active: 18.3 µM
17 | CCOc1cc(CNCc2ccccn2)ccc1OCC(=O)NC1CCCCC1 | inactive
18 | Cc1ccc(C(=O)CC(=O)c2ccc(C)cc2O)cc1 | inactive
19 | N#C/C(=C\c1cccc([N+](=O)[O-])c1)C(=O)Nc1cccnc1 | inactive
20 | CCCCC(=O)NC(c1ccc([N+](=O)[O-])cc1)c1c(O)ccc2ccccc12 (stereo unspecified) | inconclusive: 6.51 µM [inhibitor, partial curve]
21 | O=C(Cc1c(Cl)cccc1Cl)Nc1ccc(S(=O)(=O)Nc2ncccn2)cc1 | inactive

Quoted at random: two entries already listed
Row | Structure (SMILES) | Potency
15 | COc1ccccc1OCCC(=O)OCC(=O)c1c(N)n(C)c(=O)n(C)c1=O | inactive
18 | Cc1ccc(C(=O)CC(=O)c2ccc(C)cc2O)cc1 | inactive
